According to patent US20200277328 (published 2020):

Experiments:
[1] = general procedure: Fmoc solid-phase peptide synthesis; Rink Amide; DIC/HOBt (first Lys loading: DIC/HOAt or HBTU/HOBt/DIPEA); details: whole synthesis, scale 150 mmol, salt conversion performed (salt not given)
[2] = general procedure: Fmoc solid-phase peptide synthesis; Siber resin; DIC/HOBt (first Lys loading: DIC/HOAt or HBTU/HOBt/DIPEA); details: whole synthesis, scale 54 mmol, salt conversion performed (salt not given)
[3] = general procedure: Fmoc solid-phase peptide synthesis; Rink Amide-AM; DIC/HOBt (first Lys loading: DIC/HOAt or HBTU/HOBt/DIPEA); details: whole synthesis, salt conversion performed (salt not given)
[4] = general procedure: Fmoc solid-phase peptide synthesis; Rink Amide-MBHA; DIC/HOBt (first Lys loading: DIC/HOAt or HBTU/HOBt/DIPEA); details: whole synthesis, salt conversion performed (salt not given)
[5] = general procedure: Fmoc solid-phase peptide synthesis; Rink Amide resin, Rink Amide-MBHA resin, Rink Amide-AM resin, or Siber resin; DIC/HOBt (first Lys loading: DIC/HOAt or HBTU/HOBt/DIPEA); details: salt conversion performed (salt not given); for final HPLC purity / step yield: purification step; for final HPLC purity / crude HPLC purity: 220 nm; for crude HPLC purity / crude yield: whole synthesis, scale of the general procedure 150-230 mmol

lixisenatide
crude mass [1]: 251 g | crude mass [2]: 241 g | crude mass ([3]; scale 70 mmol, run 1): 338.9 g | crude mass ([3]; scale 70 mmol, run 2): 341.3 g | crude mass ([3]; scale 70 mmol, run 3): 335.6 g | crude mass ([3]; scale 105 mmol): 487 g | crude mass ([3]; scale 230 mmol, run 2): 370.6 g | crude mass ([4]; scale 32 mmol): 156 g | crude mass ([4]; scale 230 mmol, run 1): 341 g | final HPLC purity ([5]; run 1): 99.3% | final HPLC purity ([5]; run 2): 99.1% | final HPLC purity ([5]; run 3): 99.2% | final HPLC purity ([5]; run 4): 99.3% | final HPLC purity ([5]; run 5): 99.3% | final HPLC purity ([5]; run 6): 99.2% | final HPLC purity ([5]; run 7): 99.1% | final HPLC purity ([5]; run 8): 99.2% | final HPLC purity ([5]; run 9): 98.6% | step yield ([5]; run 1): 28.8% | step yield ([5]; run 2): 26.4% | step yield ([5]; run 3): 27.4% | step yield ([5]; run 4): 27.1% | step yield ([5]; run 5): 28.1% | step yield ([5]; run 6): 25.8% | step yield ([5]; run 7): 26.6% | step yield ([5]; run 8): 27.9% | step yield ([5]; run 9): 15.4% | crude HPLC purity ([5]; run 1): 69.1% | crude HPLC purity ([5]; run 2): 66.6% | crude HPLC purity ([5]; run 3): 68.4% | crude HPLC purity ([5]; run 4): 67.9% | crude HPLC purity ([5]; run 5): 67.1% | crude HPLC purity ([5]; run 6): 61.8% | crude HPLC purity ([5]; run 7): 59.6% | crude HPLC purity ([5]; run 8): 68.9% | crude HPLC purity ([5]; run 9): 44.5% | crude yield ([5]; run 1): 99.4% | crude yield ([5]; run 2): 101.2% | crude yield ([5]; run 3): 98.9% | crude yield ([5]; run 4): 102.6% | crude yield ([5]; run 5): 100.6% | crude yield ([5]; run 6): 99.6% | crude yield ([5]; run 7): 100.8% | crude yield ([5]; run 8): 97.6% | crude yield ([5]; run 9): 96.8%
